Data published in the supplement of paper PMC4604168 (melanoma cell lines).
This is one part of the list. Repeats are few or missing, and single values can be far off.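 Imaging used 1,536-well plates; nuclei positive for cleaved PARP by antibody were divided by total DNA-stained nuclei to yield the apoptosis fraction. Doses for screening kept most cells viable, and cell lines differ markedly in resting and induced cleaved-PARP levels.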

Tests used:
Assay in all cases: cleaved PARP positive nuclei fraction relative to DMSO control; melanoma cells; higher = more apoptosis
Settings in all cases: library dose: low library concentration; 72 h
[1] = system: COLO792
[2] = system: COLO800
[3] = system: COLO829
[4] = system: G361
[5] = system: IPC-298
[6] = system: IST-MEL1
[7] = system: LB2518-MEL
[8] = system: LOXIMVI

Compound	cleaved PARP positive nuclei fraction [1] [%]	cleaved PARP positive nuclei fraction [2] [%]	cleaved PARP positive nuclei fraction [3] [%]	cleaved PARP positive nuclei fraction [4] [%]	cleaved PARP positive nuclei fraction [5] [%]	cleaved PARP positive nuclei fraction [6] [%]	cleaved PARP positive nuclei fraction [7] [%]	cleaved PARP positive nuclei fraction [8] [%]
O=C(/C=C/c1cccnc1)NCCCCC1CCN(C(=O)c2ccccc2)CC1 + C/C(O)=C(\C#N)C(=O)Nc1cc(Br)ccc1Br [LFM-A13] (first compound 0.01 µM, partner dose 2 µM)	207	202	258	5060	512	226	93.8	71.8
N.N.[Cl][Pt][Cl] [cisplatin] + COc1cc(N2CCC(N3CCN(C)CC3)CC2)ccc1Nc1ncc(Cl)c(Nc2ccccc2S(=O)(=O)C(C)C)n1 [NVP-TAE684] (first compound 1.6 µM, partner dose 0.08 µM)	155	63.9	129	79.8	168	102	125	137
Cn1cc(C2=C(c3cn(C4CCN(Cc5ccccn5)CC4)c4ccccc34)C(=O)NC2=O)c2ccccc21 [Enzastaurin] + c1cc(-c2cnn3cc(-c4ccc(OCCN5CCCCC5)cc4)cnc23)ccn1 [Dorsomorphin] (first compound 0.8 µM, partner dose 0.4 µM)	191	131	51.6	55.1	115	53.8	145	63.7
O=C(O)c1ccc2c(c1)nc(Nc1cccc(Cl)c1)c1ccncc12 + O=C(Oc1ccc([N+](=O)[O-])cc1)N1CCC(C(O)(c2ccc3c(c2)OCO3)c2ccc3c(c2)OCO3)CC1 [JZL184] (first compound 0.4 µM, partner dose 1 µM)	91.7	70	101	88.1	31	88.1	86.5	38.1
Cn1cc(C2=C(c3cn(C4CCN(Cc5ccccn5)CC4)c4ccccc34)C(=O)NC2=O)c2ccccc21 [Enzastaurin] + Cn1cc(/C=C2\C(=O)Nc3cccnc32)c2ccccc21 [GW441756] (first compound 0.8 µM, partner dose 0.4 µM)	59.4	110	65.2	121	91.5	88.1	163	104
Cc1ccc(Nc2nccc(N(C)c3ccc4c(C)n(C)nc4c3)n2)cc1S(N)(=O)=O [Pazopanib] + C/C(O)=C(\C#N)C(=O)Nc1cc(Br)ccc1Br [LFM-A13] (first compound 0.4 µM, partner dose 2 µM)	154	231	97.4	73.3	49.2	94.1	98.9	528
Cn1cc(C2=C(c3cn(C4CCN(Cc5ccccn5)CC4)c4ccccc34)C(=O)NC2=O)c2ccccc21 [Enzastaurin] + COc1ccc(COc2ccc(Cc3cnc(N)nc3N)cc2OC)cc1 [GW2580] (first compound 0.8 µM, partner dose 1 µM)	54	57.2	95.7	84.1	42.8	47.2	140	105
Cn1cc(C2=C(c3cn(C4CCN(Cc5ccccn5)CC4)c4ccccc34)C(=O)NC2=O)c2ccccc21 [Enzastaurin] + COC(=O)c1sccc1S(=O)(=O)Nc1ccc(Nc2ccccc2)cc1OC [GSK0660] (first compound 0.8 µM, partner dose 1 µM)	60.9	139	65.7	58.6	81.2	81	78.6	177
C=C(c1ccc(C(=O)O)cc1)c1cc2c(cc1C)C(C)(C)CCC2(C)C [Bexarotene] + O=C(Oc1ccc([N+](=O)[O-])cc1)N1CCC(C(O)(c2ccc3c(c2)OCO3)c2ccc3c(c2)OCO3)CC1 [JZL184] (first compound 2 µM, partner dose 1 µM)	176	14.4	70.2	163	173	63.6	73.2	18.5
CO[C@H]1C[C@@H]2CC[C@@H](C)[C@@](O)(O2)C(=O)C(=O)N2CCCC[C@H]2C(=O)O[C@H]([C@H](C)C[C@@H]2CC[C@@H](OCCO)[C@H](OC)C2)CC(=O)[C@H](C)/C=C(\C)[C@@H](O)[C@@H](OC)C(=O)[C@H](C)C[C@H](C)/C=C/C=C/C=C/1C [everolimus] + C/C(O)=C(\C#N)C(=O)Nc1cc(Br)ccc1Br [LFM-A13] (first compound 0.02 µM, partner dose 2 µM)	138	51.8	198	144	77.3	141	92.2	148
Cn1cc(C2=C(c3cn(C4CCN(Cc5ccccn5)CC4)c4ccccc34)C(=O)NC2=O)c2ccccc21 [Enzastaurin] + COc1ccc2c(c1)CCC1C2CCC2(C)C(NCCCCCCN3C(=O)C=CC3=O)CCC12 [U73122] (first compound 0.8 µM, partner dose 0.4 µM)	76.2	60.5	148	64.4	124	61.2	41.7	123
NC(=O)c1ccc(N(C(N)=O)c2c(F)cccc2F)nc1-c1ccc(F)cc1F + C/C(O)=C(\C#N)C(=O)Nc1cc(Br)ccc1Br [LFM-A13] (first compound 0.4 µM, partner dose 2 µM)	78.9	77.8	97	61.7	95.2	107	140	283
Cn1sc(=O)n(Cc2ccccc2)c1=O + Cc1cc(SCc2sc(-c3ccc(C(F)(F)F)c(F)c3)nc2C)ccc1OCC(=O)O [GW0742] (first compound 0.4 µM, partner dose 2 µM)	155	65.6	79.4	67.4	94.6	189	77.1	63.3
C[C@]12O[C@H](C[C@]1(O)CO)n1c3ccccc3c3c4c(c5c6ccccc6n2c5c31)CNC4=O [Lestaurtinib] + COC(=O)c1sccc1S(=O)(=O)Nc1ccc(Nc2ccccc2)cc1OC [GSK0660] (first compound 0.004 µM, partner dose 1 µM)	152	66	17.9	88.9	99.5	56.6	70.9	122
Cc1cc(Nc2cc(N3CCN(C)CC3)nc(Sc3ccc(NC(=O)C4CC4)cc3)n2)n[nH]1 [Tozasertib] + O=C(Oc1ccc([N+](=O)[O-])cc1)N1CCC(C(O)(c2ccc3c(c2)OCO3)c2ccc3c(c2)OCO3)CC1 [JZL184] (first compound 0.006 µM, partner dose 1 µM)	123	126	35.6	66.4	125	99.2	51.1	127
C[C@]12O[C@H](C[C@]1(O)CO)n1c3ccccc3c3c4c(c5c6ccccc6n2c5c31)CNC4=O [Lestaurtinib] + CCCCCCCCCCCC1=C(O)C(=O)C=C(O)C1=O [Embelin] (first compound 0.004 µM, partner dose 1.2 µM)	74.9	94.1	55.4	138	92.6	106	81.1	114
C[C@]12O[C@H](C[C@]1(O)CO)n1c3ccccc3c3c4c(c5c6ccccc6n2c5c31)CNC4=O [Lestaurtinib] + Cc1cc([N+](=O)[O-])ccc1NS(=O)(=O)c1cc(Cl)ccc1Cl [FH535] (first compound 0.004 µM, partner dose 1 µM)	98.3	103	58.7	200	105	40.3	184	178
C[C@]12O[C@H](C[C@]1(O)CO)n1c3ccccc3c3c4c(c5c6ccccc6n2c5c31)CNC4=O [Lestaurtinib] + O=S(=O)(c1ccccc1)N(CC(F)(F)F)c1ccc(C(O)(C(F)(F)F)C(F)(F)F)cc1 [T0901317] (first compound 0.004 µM, partner dose 1.4 µM)	77.9	99.5	81.5	104	34	412	50.4	52.3
C[C@@H](Oc1cc(-c2cnn(C3CCNCC3)c2)cnc1N)c1c(Cl)ccc(F)c1Cl [Crizotinib] + C/C(O)=C(\C#N)C(=O)Nc1cc(Br)ccc1Br [LFM-A13] (first compound 0.2 µM, partner dose 2 µM)	122	44.5	106	106	94	86.8	72.3	72.6
N.N.[Cl][Pt][Cl] [cisplatin] + Oc1nc(-c2ccc(C(F)(F)F)cc2)nc2c1CSCC2 [XAV939] (first compound 1.6 µM, partner dose 2 µM)	113	124	98.3	115	96.3	120	75.3	36.9
Cc1cc(Nc2cc(N3CCN(C)CC3)nc(Sc3ccc(NC(=O)C4CC4)cc3)n2)n[nH]1 [Tozasertib] + C/C(O)=C(\C#N)C(=O)Nc1cc(Br)ccc1Br [LFM-A13] (first compound 0.006 µM, partner dose 2 µM)	137	221	243	77.2	45.7	92.2	84.3	92.5
Cc1cc(Nc2cc(N3CCN(C)CC3)nc(/C=C/c3ccccc3)n2)n[nH]1 + Cc1cc(SCc2sc(-c3ccc(C(F)(F)F)c(F)c3)nc2C)ccc1OCC(=O)O [GW0742] (first compound 0.04 µM, partner dose 2 µM)	47.8	140	199	75.8	29.9	84.8	60.4	65.8
O=C(/C=C/c1cccnc1)NCCCCC1CCN(C(=O)c2ccccc2)CC1 + O=C(Oc1ccc([N+](=O)[O-])cc1)N1CCC(C(O)(c2ccc3c(c2)OCO3)c2ccc3c(c2)OCO3)CC1 [JZL184] (first compound 0.01 µM, partner dose 1 µM)	167	527	196	2480	234	135	134	86.3
Nc1nc(F)nc2c1ncn2[C@@H]1O[C@H](CO)[C@@H](O)[C@@H]1O [fludarabine] + C/C(O)=C(\C#N)C(=O)Nc1cc(Br)ccc1Br [LFM-A13] (first compound 0.2 µM, partner dose 2 µM)	76.3	75.5	138	123	64.6	95.4	64	141

2 entries picked at random from the list so far:
Compound	cleaved PARP positive nuclei fraction [1] [%]	cleaved PARP positive nuclei fraction [2] [%]	cleaved PARP positive nuclei fraction [3] [%]	cleaved PARP positive nuclei fraction [4] [%]	cleaved PARP positive nuclei fraction [5] [%]	cleaved PARP positive nuclei fraction [6] [%]	cleaved PARP positive nuclei fraction [7] [%]	cleaved PARP positive nuclei fraction [8] [%]
N.N.[Cl][Pt][Cl] [cisplatin] + Oc1nc(-c2ccc(C(F)(F)F)cc2)nc2c1CSCC2 [XAV939] (first compound 1.6 µM, partner dose 2 µM)	113	124	98.3	115	96.3	120	75.3	36.9
C=C(c1ccc(C(=O)O)cc1)c1cc2c(cc1C)C(C)(C)CCC2(C)C [Bexarotene] + O=C(Oc1ccc([N+](=O)[O-])cc1)N1CCC(C(O)(c2ccc3c(c2)OCO3)c2ccc3c(c2)OCO3)CC1 [JZL184] (first compound 2 µM, partner dose 1 µM)	176	14.4	70.2	163	173	63.6	73.2	18.5
